The results are deposited in PubChem (AID624287; NCATS, 2012).

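A 30-minute cAMP HTRF measurement in gsp-mutant cells, used to look for compounds that raise the signal.
Each compound was run as a dilution series from about 0.61 to 76.9 µM.
The number is the AC50, the concentration giving half the maximal cAMP rise; a lower value means a more potent activator.
Calls come from the curve class and fit quality, with scores of 40–100 for actives; these rows show partial, single-point or poorly fitted curves and are all called inconclusive.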

Values are in µM.
All entries here are filed as inconclusive.
Only part of the assay is shown, chiefly results filed as inconclusive.
Potencies fitted to partial, single-point or poorly fitting curves are rough.
Activity scores are not listed here.

SMILES	fitted potency (µM)	remark
O=c1c2ccccc2nc(-c2ccc(-c3ccccc3)cc2)n1-c1ccncc1	0.7943	activator, full curve, poor fit
COc1cccc(-n2nc3c(=S)[nH]nc(C)c3c2C)c1	39.81	activator, single point
O=C(COc1nc2ccccc2nc1N1CCOCC1)NCC(F)(F)F	39.81	activator, partial curve, poor fit
C=CCCCCCCCCC(=O)N1CCN(c2cc3c(cc2F)c(=O)c(C(=O)O)cn3CC)CC1	50.12	activator, single point
C/C=C(/C)C(=O)O[C@@H]1c2c(ccc3ccc(=O)oc23)OC(C)(C)[C@@H]1OC(=O)/C(C)=C\C	7.08	activator, single point
CC1CN2c3ccc([N+](=O)[O-])cc3CC3(C(=O)N(C)C(=O)N(C)C3=O)C2C(C)O1 (centres undefined)	15.85	activator, partial curve, poor fit
COCCCNC(=O)c1cccn2c(=O)c3cc4ccccc4cc3nc12	50.12	activator, single point
O=C(NC(=S)Nc1ccc(Cl)cn1)C(c1ccccc1)c1ccccc1	3.981	activator, partial curve, poor fit
O=C(Nc1ccccc1)c1ccc(COc2ccccc2)cc1	2.239	activator, partial curve, poor fit
CN(CCc1ccccc1)C(=O)c1ccc(NC(=O)Cc2cccc([N+](=O)[O-])c2)cc1	4.467	activator, single point
Cc1cc(C)cc(NC(=O)CSc2nnc(NC(=O)C3CC3)s2)c1	50.12	activator, single point
Cc1cc(SCC(=O)NC2CCCCC2)nc2ccccc12	17.78	activator, partial curve, poor fit
CC(=O)c1ccc(CCCCCCCCCC(=O)O)s1	12.59	activator, partial curve, poor fit
CCOC(=O)N1CCC(NC(=O)C2CCCN(Cc3nc(-c4ccc(CC)cc4)oc3C)C2)CC1 (centres undefined)	0.8913	activator, full curve, poor fit
Nc1cccc(-c2nc3cc(S(=O)(=O)c4ccc5oc(-c6cccc(N)c6)nc5c4)ccc3o2)c1	44.67	activator, single point
CCOC(=O)c1cc(C#N)c(N2CCN(C)CC2)nc1-c1ccccc1	11.22	activator, partial curve, poor fit
O=C(CSc1nnc(-c2ccccn2)o1)Nc1ccc(F)cc1	31.62	activator, partial curve, poor fit
Cc1ccc(C(O)(c2ccc(C)c(C)c2)C2CN3CCC2CC3)cc1C (centres undefined)	39.81	activator, single point
O=C(NN1CCN(Cc2ccccc2)CC1)c1ccc(N2CCOCC2)c([N+](=O)[O-])c1	10	activator, single point
COc1cccc(OCc2cc(C(=O)N3CCNC(=O)C3Cc3ccccc3)no2)c1 (centres undefined)	7.08	activator, partial curve, poor fit
CC1CCN(S(=O)(=O)c2ccc(C(=O)Nc3ccccc3-c3nc4ccccc4[nH]3)cc2)CC1	11.22	activator, single point
O=C1/C(=C/c2cc([N+](=O)[O-])ccc2Cl)N2CCC1CC2	3.548	activator, single point
CCCc1cc(C(=O)Nc2cc(Br)ccc2O)no1	10	activator, single point
O=C1Nc2ccccc2C1(O)c1ccccc1O (centres undefined)	50.12	activator, single point
C[C@]12CCC3C(CC[C@H]4C[C@@H](O)CC[C@]34C)C1[C@H]1CN=N[C@H]1[C@@H]2O (some centres undefined)	50.12	activator, single point
Cc1c(CC(=O)NCC(=O)NCC(=O)O)c(=O)oc2c(C)c3oc4c(c3cc12)CCCC4	0.8913	activator, full curve, poor fit
C=CCn1c(=O)c(C(=O)Nc2ccccc2C(=O)OCC)c(O)c2ccccc21	3.548	activator, partial curve, poor fit
N#Cc1cc2ccccc2nc1SCC(=O)Nc1ccc(S(=O)(=O)N2CCCC2)cc1	2.239	activator, full curve, poor fit
Cc1cccc(NC(=O)c2sc3nc(N4CCOCC4)c4c(c3c2N)CCCC4)c1	28.18	activator, partial curve, poor fit
COc1ccc(C(=O)Nn2c(C)nc3ccccc3c2=O)cc1OC	4.467	activator, single point
O=C(O)c1cccnc1Sc1ccccc1	50.12	activator, single point
CCCCCCCCCC(=O)N1CCN(c2cc3c(cc2F)c(=O)c(C(=O)O)cn3CC)CC1	10	activator, single point
COc1ccc(-c2cc3ccccc3oc2=O)cc1NC(=S)NC(=O)c1ccc2c(c1)OCCO2	0.8913	activator, full curve, poor fit
O=C(Nc1ccc(F)cc1)c1c(O)c2c(n(Cc3ccccc3)c1=O)CCCC2	3.548	activator, partial curve, poor fit

Some entries from above, unchanged:

| SMILES | fitted potency (µM) | remark |
|---|---|---|
| `O=C(Nc1ccc(F)cc1)c1c(O)c2c(n(Cc3ccccc3)c1=O)CCCC2` | 3.548 | activator, partial curve, poor fit |
| `Cc1ccc(C(O)(c2ccc(C)c(C)c2)C2CN3CCC2CC3)cc1C` (centres undefined) | 39.81 | activator, single point |
| `CCCc1cc(C(=O)Nc2cc(Br)ccc2O)no1` | 10 | activator, single point |